Experimental data: the supplement of paper PMC10849652
The list shows a part of the results.

The chains behind the UniProt entries cited, without tags or fusion partners. Where a name states a change or a piece, a line headed by the entry shows the natural chain unless it says otherwise.
UniProt Q6W2J9: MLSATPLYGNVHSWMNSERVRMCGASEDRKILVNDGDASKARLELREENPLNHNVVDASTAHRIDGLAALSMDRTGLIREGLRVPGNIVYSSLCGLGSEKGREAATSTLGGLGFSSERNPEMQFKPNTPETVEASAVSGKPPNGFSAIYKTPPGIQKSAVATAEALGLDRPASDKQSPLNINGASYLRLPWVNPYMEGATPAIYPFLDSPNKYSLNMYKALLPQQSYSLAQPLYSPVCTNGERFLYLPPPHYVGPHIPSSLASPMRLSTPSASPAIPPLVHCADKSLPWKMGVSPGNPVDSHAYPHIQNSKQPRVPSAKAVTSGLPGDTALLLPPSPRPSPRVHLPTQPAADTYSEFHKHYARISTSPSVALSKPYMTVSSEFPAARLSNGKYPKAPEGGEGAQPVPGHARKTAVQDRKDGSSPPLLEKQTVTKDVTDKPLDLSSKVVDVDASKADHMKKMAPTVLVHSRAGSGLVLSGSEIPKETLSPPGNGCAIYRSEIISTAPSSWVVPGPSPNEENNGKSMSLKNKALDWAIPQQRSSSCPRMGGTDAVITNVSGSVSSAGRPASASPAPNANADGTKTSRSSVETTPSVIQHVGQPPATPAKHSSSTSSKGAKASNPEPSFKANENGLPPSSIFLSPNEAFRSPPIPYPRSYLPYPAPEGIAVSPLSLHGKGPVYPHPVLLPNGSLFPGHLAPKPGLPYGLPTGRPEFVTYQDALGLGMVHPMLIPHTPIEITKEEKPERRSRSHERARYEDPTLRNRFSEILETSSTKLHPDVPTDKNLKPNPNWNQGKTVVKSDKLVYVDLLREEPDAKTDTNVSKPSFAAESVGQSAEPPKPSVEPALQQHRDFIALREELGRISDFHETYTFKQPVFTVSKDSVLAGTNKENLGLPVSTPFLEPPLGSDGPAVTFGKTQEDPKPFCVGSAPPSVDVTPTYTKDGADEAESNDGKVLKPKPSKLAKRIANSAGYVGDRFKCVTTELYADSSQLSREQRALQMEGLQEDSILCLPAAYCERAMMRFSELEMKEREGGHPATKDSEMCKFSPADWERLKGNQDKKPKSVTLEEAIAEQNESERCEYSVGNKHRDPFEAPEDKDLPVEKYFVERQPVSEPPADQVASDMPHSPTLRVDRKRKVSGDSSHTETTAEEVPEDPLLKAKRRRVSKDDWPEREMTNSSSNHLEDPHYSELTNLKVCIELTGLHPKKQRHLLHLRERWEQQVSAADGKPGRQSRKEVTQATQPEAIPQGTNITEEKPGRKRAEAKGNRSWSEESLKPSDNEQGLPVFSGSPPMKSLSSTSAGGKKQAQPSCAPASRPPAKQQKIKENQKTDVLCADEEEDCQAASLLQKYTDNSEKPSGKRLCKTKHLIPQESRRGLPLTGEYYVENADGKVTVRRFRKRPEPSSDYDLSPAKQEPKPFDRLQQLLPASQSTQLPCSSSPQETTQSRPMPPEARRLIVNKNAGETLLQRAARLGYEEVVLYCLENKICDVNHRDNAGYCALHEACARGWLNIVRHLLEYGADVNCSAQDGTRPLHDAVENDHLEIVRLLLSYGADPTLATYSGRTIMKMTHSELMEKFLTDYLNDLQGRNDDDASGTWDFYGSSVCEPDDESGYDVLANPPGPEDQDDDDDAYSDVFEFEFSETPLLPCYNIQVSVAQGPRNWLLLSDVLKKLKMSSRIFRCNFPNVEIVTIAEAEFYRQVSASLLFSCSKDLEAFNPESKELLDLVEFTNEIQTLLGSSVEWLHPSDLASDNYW
UniProt Q10589, whole entry, looked up: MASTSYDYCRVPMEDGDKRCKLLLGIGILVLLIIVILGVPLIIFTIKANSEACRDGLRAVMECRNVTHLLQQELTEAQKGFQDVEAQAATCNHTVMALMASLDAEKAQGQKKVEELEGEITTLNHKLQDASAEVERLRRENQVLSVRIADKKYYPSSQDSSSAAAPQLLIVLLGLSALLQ
UniProt Q9NWV8, whole entry, looked up: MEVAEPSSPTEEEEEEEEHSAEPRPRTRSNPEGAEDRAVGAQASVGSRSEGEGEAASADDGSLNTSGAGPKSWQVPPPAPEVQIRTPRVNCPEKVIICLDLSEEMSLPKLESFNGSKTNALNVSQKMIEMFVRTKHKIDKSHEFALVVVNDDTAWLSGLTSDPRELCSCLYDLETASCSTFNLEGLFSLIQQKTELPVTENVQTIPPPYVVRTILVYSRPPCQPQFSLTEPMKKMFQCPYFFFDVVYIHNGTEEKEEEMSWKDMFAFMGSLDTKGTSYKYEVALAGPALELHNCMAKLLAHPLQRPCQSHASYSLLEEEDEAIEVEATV
UniProt O95861: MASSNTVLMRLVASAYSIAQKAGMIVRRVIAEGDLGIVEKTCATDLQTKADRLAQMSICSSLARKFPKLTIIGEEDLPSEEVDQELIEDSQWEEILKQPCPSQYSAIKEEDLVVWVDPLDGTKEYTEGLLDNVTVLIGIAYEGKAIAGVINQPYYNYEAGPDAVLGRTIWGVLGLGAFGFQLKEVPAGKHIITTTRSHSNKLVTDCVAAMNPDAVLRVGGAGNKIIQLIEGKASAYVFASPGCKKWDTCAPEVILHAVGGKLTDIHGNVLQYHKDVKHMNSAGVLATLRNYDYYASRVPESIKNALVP
UniProt Q9UL15: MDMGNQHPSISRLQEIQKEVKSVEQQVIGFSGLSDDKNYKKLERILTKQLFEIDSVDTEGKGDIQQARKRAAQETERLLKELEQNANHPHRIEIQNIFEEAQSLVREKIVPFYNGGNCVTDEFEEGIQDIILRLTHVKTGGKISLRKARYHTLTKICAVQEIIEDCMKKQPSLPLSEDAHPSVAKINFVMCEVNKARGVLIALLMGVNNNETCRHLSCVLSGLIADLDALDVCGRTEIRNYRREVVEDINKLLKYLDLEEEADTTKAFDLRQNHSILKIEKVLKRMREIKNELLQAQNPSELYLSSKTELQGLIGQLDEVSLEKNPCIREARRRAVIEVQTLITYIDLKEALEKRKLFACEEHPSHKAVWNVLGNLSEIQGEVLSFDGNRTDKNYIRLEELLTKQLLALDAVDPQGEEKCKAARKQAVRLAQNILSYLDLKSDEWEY
UniProt Q14692: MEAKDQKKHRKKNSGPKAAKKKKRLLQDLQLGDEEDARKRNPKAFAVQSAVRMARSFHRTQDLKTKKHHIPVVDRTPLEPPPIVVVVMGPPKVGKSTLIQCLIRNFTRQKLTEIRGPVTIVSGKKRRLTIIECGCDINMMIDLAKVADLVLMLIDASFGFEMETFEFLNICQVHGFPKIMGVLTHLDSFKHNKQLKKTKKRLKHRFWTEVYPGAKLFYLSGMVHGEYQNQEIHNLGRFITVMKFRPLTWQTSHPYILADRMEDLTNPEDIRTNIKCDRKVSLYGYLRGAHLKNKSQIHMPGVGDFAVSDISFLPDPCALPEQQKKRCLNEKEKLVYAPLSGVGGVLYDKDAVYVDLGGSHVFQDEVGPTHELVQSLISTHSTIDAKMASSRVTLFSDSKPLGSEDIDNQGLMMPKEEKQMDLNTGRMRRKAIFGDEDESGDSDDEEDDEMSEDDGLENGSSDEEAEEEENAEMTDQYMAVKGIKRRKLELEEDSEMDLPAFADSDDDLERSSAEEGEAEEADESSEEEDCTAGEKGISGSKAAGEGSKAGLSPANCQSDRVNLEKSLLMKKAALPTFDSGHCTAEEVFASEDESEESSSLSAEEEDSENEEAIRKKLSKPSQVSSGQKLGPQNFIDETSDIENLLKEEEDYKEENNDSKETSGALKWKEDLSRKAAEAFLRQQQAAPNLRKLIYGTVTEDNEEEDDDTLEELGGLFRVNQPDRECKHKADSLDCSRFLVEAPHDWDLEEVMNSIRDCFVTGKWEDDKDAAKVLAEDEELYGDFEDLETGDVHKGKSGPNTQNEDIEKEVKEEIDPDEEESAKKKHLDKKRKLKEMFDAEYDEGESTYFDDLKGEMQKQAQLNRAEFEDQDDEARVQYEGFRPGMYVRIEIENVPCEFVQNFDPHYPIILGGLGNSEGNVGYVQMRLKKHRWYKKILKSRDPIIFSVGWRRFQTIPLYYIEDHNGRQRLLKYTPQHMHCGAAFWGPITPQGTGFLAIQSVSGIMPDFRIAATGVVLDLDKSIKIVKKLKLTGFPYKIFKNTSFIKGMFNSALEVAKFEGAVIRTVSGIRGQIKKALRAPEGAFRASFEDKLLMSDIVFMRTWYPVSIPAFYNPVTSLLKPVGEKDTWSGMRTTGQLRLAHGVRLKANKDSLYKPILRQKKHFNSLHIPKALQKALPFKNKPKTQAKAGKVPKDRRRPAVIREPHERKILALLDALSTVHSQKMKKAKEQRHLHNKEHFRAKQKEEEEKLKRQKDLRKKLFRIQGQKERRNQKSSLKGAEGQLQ
UniProt Q92843: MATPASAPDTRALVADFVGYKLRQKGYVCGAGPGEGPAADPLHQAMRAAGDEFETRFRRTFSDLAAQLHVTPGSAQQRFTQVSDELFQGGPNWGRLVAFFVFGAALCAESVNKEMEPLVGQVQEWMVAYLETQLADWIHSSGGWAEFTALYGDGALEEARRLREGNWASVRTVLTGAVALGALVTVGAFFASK
UniProt Q9NSY1, whole entry, looked up: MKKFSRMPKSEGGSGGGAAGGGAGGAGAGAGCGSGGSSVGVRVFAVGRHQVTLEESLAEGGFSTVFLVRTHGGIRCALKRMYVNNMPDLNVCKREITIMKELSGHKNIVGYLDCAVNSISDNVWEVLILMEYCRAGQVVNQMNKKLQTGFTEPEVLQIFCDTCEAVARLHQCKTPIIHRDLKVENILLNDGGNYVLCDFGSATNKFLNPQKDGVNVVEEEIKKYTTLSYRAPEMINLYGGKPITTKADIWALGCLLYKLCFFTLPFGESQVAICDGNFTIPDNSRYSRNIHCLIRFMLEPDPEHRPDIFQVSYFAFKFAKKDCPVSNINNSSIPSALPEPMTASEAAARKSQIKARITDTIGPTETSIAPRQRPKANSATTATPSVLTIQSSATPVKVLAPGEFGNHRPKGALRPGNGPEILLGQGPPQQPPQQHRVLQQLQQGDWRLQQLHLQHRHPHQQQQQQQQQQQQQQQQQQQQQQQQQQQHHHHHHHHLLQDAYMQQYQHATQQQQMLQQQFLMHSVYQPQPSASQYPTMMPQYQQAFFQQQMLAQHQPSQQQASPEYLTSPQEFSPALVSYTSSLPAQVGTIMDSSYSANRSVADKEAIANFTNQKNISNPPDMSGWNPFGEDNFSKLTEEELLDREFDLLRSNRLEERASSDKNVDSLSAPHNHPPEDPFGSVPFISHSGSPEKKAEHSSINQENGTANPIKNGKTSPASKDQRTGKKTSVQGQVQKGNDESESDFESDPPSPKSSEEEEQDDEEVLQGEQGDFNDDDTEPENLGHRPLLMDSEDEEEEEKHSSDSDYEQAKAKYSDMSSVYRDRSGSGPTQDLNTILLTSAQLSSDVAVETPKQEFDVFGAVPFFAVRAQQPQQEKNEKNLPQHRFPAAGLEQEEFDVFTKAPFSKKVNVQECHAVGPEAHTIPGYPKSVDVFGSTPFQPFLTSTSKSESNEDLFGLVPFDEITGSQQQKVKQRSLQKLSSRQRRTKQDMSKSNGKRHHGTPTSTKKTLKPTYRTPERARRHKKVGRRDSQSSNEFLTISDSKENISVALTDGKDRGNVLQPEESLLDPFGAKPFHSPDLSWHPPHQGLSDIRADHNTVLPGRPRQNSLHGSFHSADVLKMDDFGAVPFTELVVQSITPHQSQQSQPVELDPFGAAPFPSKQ
UniProt Q9P287, whole entry, looked up: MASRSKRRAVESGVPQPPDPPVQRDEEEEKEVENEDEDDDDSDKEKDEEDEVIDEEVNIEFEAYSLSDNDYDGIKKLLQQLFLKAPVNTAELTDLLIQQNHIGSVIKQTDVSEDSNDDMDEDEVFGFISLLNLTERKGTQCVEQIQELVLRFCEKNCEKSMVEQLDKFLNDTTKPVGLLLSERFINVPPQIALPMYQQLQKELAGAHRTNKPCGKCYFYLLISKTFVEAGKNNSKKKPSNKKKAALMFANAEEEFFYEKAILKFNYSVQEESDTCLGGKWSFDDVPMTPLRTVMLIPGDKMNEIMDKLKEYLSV
UniProt Q53S33: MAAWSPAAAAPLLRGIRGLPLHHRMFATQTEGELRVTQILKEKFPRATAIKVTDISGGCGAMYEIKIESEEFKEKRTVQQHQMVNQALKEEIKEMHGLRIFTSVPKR
UniProt O15392, whole entry, looked up: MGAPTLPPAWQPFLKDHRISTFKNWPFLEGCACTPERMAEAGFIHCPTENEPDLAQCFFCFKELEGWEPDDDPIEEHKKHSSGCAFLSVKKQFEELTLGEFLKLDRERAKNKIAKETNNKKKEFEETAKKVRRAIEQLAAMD

What was measured:
Test in all cases: log2 fold change, soluble protein after heating vs DMSO (PISA); higher = thermal stabilisation; K562 lysate, 10 uM; active = over 0.2 and 3.5 SD of the protein, either way, in both replicates (recomputed)
vemurafenib = compound: CCCS(=O)(=O)Nc1ccc(F)c(C(=O)c2c[nH]c3ncc(-c4ccc(Cl)cc4)cc23)c1F [vemurafenib]
Method in brief: (§1)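 Thermal stability, expressed as log-two fold change relative to solvent controls, is given from duplicates. Crude K562 extract in PBS pH 7.4 with 1 mM MgCl2, at 1 mg/mL protein, was treated with 10 μM compound for 30 min and heated in aliquots for 3 min across 48°C-58°C. After pooling, adjustment to 0.5% NP-40 at 4°C and centrifugation at 21,000xg for 90 min, supernatant protein was measured by TMTpro 16plex LC-MS/MS with channel sums equalised.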

[1] = compound: CCCS(=O)(=O)Nc1ccc(F)c(C(=O)c2c[nH]c3ncc(Cl)cc23)c1F
Method in brief: as §1

barasertib = compound: CCN(CCCOc1ccc2c(Nc3cc(CC(=O)Nc4cccc(F)c4)[nH]n3)ncnc2c1)CCOP(=O)(O)O [barasertib]
Method in brief: as §1

[2] = compound: CC[C@@H]1C(=O)N(C)c2cnc(Nc3ccc(C(=O)NC4CCN(C)CC4)cc3OC)nc2N1C1CCCC1
Method in brief: as §1

volasertib = compound: CC[C@@H]1C(=O)N(C)c2cnc(Nc3ccc(C(=O)N[C@H]4CC[C@H](N5CCN(CC6CC6)CC5)CC4)cc3OC)nc2N1C(C)C [volasertib]
Method in brief: as §1

[3] = compound: CCn1c(C(=O)N(C2CC2)C2CC2)cc2c3c(ncn3C)c(Nc3cc(C)n(C)n3)nc21
Method in brief: as §1

[4] = compound: CCn1cc(-c2ccnc3[nH]c(-c4cccc(CN(C)C)c4)cc23)c(-c2ccc(NC(=O)N(C)C)cc2)n1
Method in brief: as §1

[5] = compound: CN1CCC(CNc2ccc3ncc(-c4cccc(OC(F)(F)F)c4)n3n2)CC1
Method in brief: as §1

saracatinib = compound: CN1CCN(CCOc2cc(OC3CCOCC3)c3c(Nc4c(Cl)ccc5c4OCO5)ncnc3c2)CC1 [saracatinib]
Method in brief: as §1

sotrastaurin = compound: CN1CCN(c2nc(C3=C(c4c[nH]c5ccccc45)C(=O)NC3=O)c3ccccc3n2)CC1 [sotrastaurin]
Method in brief: as §1

alvocidib = compound: CN1CC[C@H](c2c(O)cc(O)c3c(=O)cc(-c4ccccc4Cl)oc23)[C@H](O)C1 [alvocidib]
Method in brief: as §1

Tubastatin A = compound: CN1CCc2c(c3ccccc3n2Cc2ccc(C(=O)NO)cc2)C1 [Tubastatin A]
Method in brief: as §1

[6] = compound: CNC(=O)C1=CC=CC=C1NC2=NC(=NC=C2Cl)NC3=C(C=C(C=C3)N4CCOCC4)OC
Method in brief: as §1

defactinib = compound: CNC(=O)c1ccc(Nc2ncc(C(F)(F)F)c(NCc3nccnc3N(C)S(C)(=O)=O)n2)cc1 [defactinib]
Method in brief: as §1

[7] = compound: CNc1nc(-c2ccc3c(N)n[nH]c3c2)cc(N2C[C@@H](C(=O)NC3CCCCC3)CC[C@H]2C)n1
Method in brief: as §1

encorafenib = compound: COC(=O)N[C@@H](C)CNc1nccc(-c2cn(C(C)C)nc2-c2cc(Cl)cc(NS(C)(=O)=O)c2F)n1 [encorafenib]
Method in brief: as §1

[8] = compound: COC(=O)[C@H](CCSC)NC(=O)C1=C(C=C(C=C1)NC[C@H](CS)N)C2=CC=CC=C2
Method in brief: as §1

alisertib = compound: COc1cc(Nc2ncc3c(n2)-c2ccc(Cl)cc2C(c2c(F)cccc2OC)=NC3)ccc1C(=O)O [alisertib]
Method in brief: as §1

[9] = compound: COc1cc2nc(-c3cc(F)ccc3O)nc(N[C@@H]3CNC[C@H]3C(C)(C)O)c2cc1OC
Method in brief: as §1

gefitinib = compound: COc1cc2ncnc(Nc3ccc(F)c(Cl)c3)c2cc1OCCCN1CCOCC1 [gefitinib]
Method in brief: as §1

| Target | log2 fold change (vemurafenib) | log2 fold change [1] | log2 fold change (barasertib) | log2 fold change [2] | log2 fold change (volasertib) | log2 fold change [3] | log2 fold change [4] | log2 fold change [5] | log2 fold change (saracatinib) | log2 fold change (sotrastaurin) | log2 fold change (alvocidib) | log2 fold change (Tubastatin A) | log2 fold change [6] | log2 fold change (defactinib) | log2 fold change [7] | log2 fold change (encorafenib) | log2 fold change [8] | log2 fold change (alisertib) | log2 fold change [9] | log2 fold change (gefitinib) |
| --- | --- | --- | --- | --- | --- | --- | --- | --- | --- | --- | --- | --- | --- | --- | --- | --- | --- | --- | --- | --- |
| BCL7C isoform 2 (UniProt Q8WUZ0) | inactive: 0.02 | inactive: -0.012 | inactive: 0.029 | inactive: 0.014 | inactive: 0.012 | inactive: 0.05 | inactive: -0.192 | inactive: 0.079 | inactive: 0.039 | inactive: -0.01 | inactive: -0.011 | inactive: -0.094 | inactive: 0.029 | inactive: -0.081 | inactive: 0.013 | inactive: -0.012 | inactive: 0.031 | inactive: 0.068 | inactive: 0.025 | inactive: -0.008 |
| BPTF (UniProt Q12830) | inactive: 0.054 | inactive: -0.011 | inactive: -0.039 | inactive: -0.02 | inactive: -0.041 | inactive: -0.025 | inactive: -0.012 | inactive: 0.01 | inactive: 0.032 | inactive: 0 | inactive: -0.022 | inactive: -0.08 | inactive: 0.049 | inactive: 0.018 | inactive: 0.004 | inactive: 0.039 | inactive: 0.091 | inactive: 0.033 | inactive: 0.022 | inactive: 0.05 |
| BCOR (UniProt Q6W2J9) | inactive: 0.208 | inactive: 0.012 | inactive: 0.052 | inactive: 0.055 | inactive: 0.001 | inactive: 0.182 | inactive: -0.329 | inactive: 0.134 | inactive: 0.086 | inactive: -0.034 | inactive: -0.108 | inactive: -0.132 | inactive: -0.016 | inactive: -0.386 | inactive: 0.013 | inactive: 0.026 | inactive: 0.191 | inactive: -0.034 | inactive: 0.105 | inactive: 0.106 |
| BST2 (UniProt Q10589) | inactive: -0.015 | inactive: -0.021 | inactive: 0.009 | inactive: 0 | inactive: 0.001 | inactive: 0 | inactive: -0.061 | inactive: 0.057 | inactive: 0.037 | inactive: 0.002 | inactive: -0.018 | inactive: 0.014 | inactive: -0.007 | inactive: -0.037 | inactive: -0.072 | inactive: 0.011 | inactive: -0.056 | inactive: 0.001 | inactive: 0.04 | inactive: 0.006 |
| BABAM1 (UniProt Q9NWV8) | inactive: -0.025 | inactive: -0.011 | inactive: -0.017 | inactive: 0.024 | inactive: 0.023 | inactive: 0.045 | inactive: -0.167 | inactive: 0.017 | inactive: 0.013 | inactive: 0.018 | inactive: -0.016 | inactive: -0.161 | inactive: 0.011 | inactive: -0.019 | inactive: -0.026 | inactive: -0.025 | inactive: 0.041 | inactive: -0.008 | inactive: -0.008 | inactive: 0.009 |
| BORCS5 (UniProt Q969J3) | inactive: 0.044 | inactive: 0.005 | active: 0.201 | inactive: 0.057 | inactive: 0.027 | inactive: -0.01 | inactive: 0.075 | inactive: -0.055 | inactive: 0.013 | inactive: 0.017 | inactive: -0.012 | inactive: 0.043 | inactive: -0.001 | inactive: 0.067 | inactive: 0.032 | inactive: 0.074 | inactive: -0.09 | inactive: -0.014 | inactive: 0.01 | inactive: -0.079 |
| BPNT1 (UniProt O95861) | inactive: -0.012 | inactive: -0.002 | inactive: 0.011 | inactive: 0.012 | inactive: 0.014 | inactive: -0.012 | inactive: 0.043 | inactive: 0.006 | inactive: -0.074 | inactive: -0.07 | inactive: 0.019 | inactive: 0.035 | inactive: 0.003 | inactive: 0.002 | inactive: 0.017 | inactive: -0.058 | inactive: -0.033 | inactive: 0.017 | inactive: 0.003 | inactive: -0.027 |
| BAG5 isoform 2 (UniProt Q9UL15) | inactive: -0.017 | inactive: 0.034 | inactive: 0.051 | inactive: -0.018 | inactive: -0.033 | inactive: -0.033 | inactive: -0.041 | inactive: 0.026 | inactive: -0.05 | inactive: 0.013 | inactive: -0.059 | inactive: -0.045 | inactive: -0.01 | inactive: 0.016 | inactive: -0.032 | inactive: -0.009 | inactive: 0.066 | inactive: -0.071 | inactive: 0.003 | inactive: 0.021 |
| BMS1 (UniProt Q14692) | inactive: -0.038 | inactive: 0.023 | inactive: 0.127 | inactive: -0.027 | inactive: -0.018 | inactive: 0.012 | inactive: -0.054 | inactive: 0.006 | inactive: -0.004 | inactive: 0.005 | inactive: -0.016 | inactive: -0.024 | inactive: 0.042 | inactive: 0.053 | inactive: 0.007 | inactive: 0.075 | inactive: 0.01 | inactive: 0.035 | inactive: -0.01 | inactive: -0.042 |
| BCL2L2 isoform 2 (UniProt Q92843) | inactive: -0.013 | inactive: 0.023 | inactive: 0.004 | inactive: -0.007 | inactive: -0.011 | inactive: -0.01 | inactive: 0.036 | inactive: 0.023 | inactive: -0.014 | inactive: 0.003 | inactive: -0.018 | inactive: -0.038 | inactive: -0.036 | inactive: -0.011 | inactive: 0.003 | inactive: -0.015 | inactive: 0.068 | inactive: -0.019 | inactive: 0.003 | inactive: -0.025 |
| BMP2K (UniProt Q9NSY1) | inactive: -0.017 | inactive: -0.105 | inactive: -0.017 | inactive: 0.043 | inactive: 0.056 | inactive: 0.062 | inactive: 0.03 | inactive: 0.865 | inactive: -0.018 | inactive: 0.048 | inactive: -0.026 | inactive: -0.151 | inactive: 0.541 | inactive: 0.303 | inactive: 0.376 | inactive: -0.22 | inactive: -0.199 | inactive: -0.001 | inactive: -0.037 | inactive: 0.066 |
| BCCIP isoform 2 (UniProt Q9P287) | inactive: -0.051 | inactive: -0.014 | inactive: 0.01 | inactive: -0.062 | inactive: 0.014 | inactive: 0.015 | inactive: 0.066 | inactive: -0.053 | inactive: -0.016 | inactive: 0.014 | inactive: 0.079 | inactive: -0.003 | inactive: 0.002 | inactive: 0.023 | inactive: -0.13 | inactive: 0.024 | inactive: -0.024 | inactive: 0.009 | inactive: -0.034 | inactive: 0.012 |
| BOLA3 (UniProt Q53S33) | inactive: -0.05 | inactive: 0.019 | inactive: 0.023 | inactive: 0.01 | inactive: 0.031 | inactive: -0.025 | inactive: -0.192 | inactive: 0.044 | inactive: -0.03 | inactive: 0.038 | inactive: -0.023 | inactive: 0.069 | inactive: -0.015 | inactive: -0.001 | inactive: -0.027 | inactive: -0.001 | inactive: -0.026 | inactive: -0.03 | inactive: 0.025 | inactive: 0.009 |
| BNIP2 (UniProt J3KN59) | inactive: 0.025 | inactive: 0.01 | inactive: 0.002 | inactive: 0.11 | inactive: 0.003 | inactive: 0.06 | inactive: -0.07 | inactive: 0.058 | inactive: 0.02 | inactive: 0.01 | inactive: -0.016 | inactive: -0.087 | inactive: 0.022 | inactive: -0.003 | inactive: -0.041 | inactive: -0.057 | inactive: 0.011 | inactive: -0.15 | inactive: -0.038 | inactive: -0.207 |
| BRAF (UniProt P15056) | active: 1.03 | active: 0.765 | inactive: 0.012 | inactive: -0.069 | inactive: -0.044 | inactive: -0.023 | inactive: -0.11 | inactive: 0.037 | inactive: 0.017 | inactive: -0.025 | inactive: -0.019 | inactive: -0.071 | inactive: 0.016 | inactive: 0.067 | inactive: -0.016 | active: 0.984 | inactive: 0.043 | inactive: -0.021 | inactive: -0.019 | inactive: 0.045 |
| BIRC5 (UniProt O15392) | inactive: -0.035 | inactive: -0.053 | inactive: 0.012 | inactive: -0.107 | inactive: 0.003 | inactive: -0.051 | inactive: -0.001 | inactive: 0.066 | inactive: 0.039 | inactive: -0.001 | inactive: 0.004 | inactive: 0.035 | inactive: 0.108 | inactive: -0.015 | inactive: -0.022 | inactive: 0.117 | inactive: 0.005 | inactive: 0.104 | inactive: -0.105 | inactive: -0.052 |

Laid out differently: results already given
Target	log2 fold change (vemurafenib)	log2 fold change [1]	log2 fold change (barasertib)	log2 fold change [2]	log2 fold change (volasertib)	log2 fold change [3]	log2 fold change [4]	log2 fold change [5]	log2 fold change (saracatinib)	log2 fold change (sotrastaurin)	log2 fold change (alvocidib)	log2 fold change (Tubastatin A)	log2 fold change [6]	log2 fold change (defactinib)	log2 fold change [7]	log2 fold change (encorafenib)	log2 fold change [8]	log2 fold change (alisertib)	log2 fold change [9]	log2 fold change (gefitinib)
BPNT1 (UniProt O95861)	inactive: -0.012	inactive: -0.002	inactive: 0.011	inactive: 0.012	inactive: 0.014	inactive: -0.012	inactive: 0.043	inactive: 0.006	inactive: -0.074	inactive: -0.07	inactive: 0.019	inactive: 0.035	inactive: 0.003	inactive: 0.002	inactive: 0.017	inactive: -0.058	inactive: -0.033	inactive: 0.017	inactive: 0.003	inactive: -0.027
BNIP2 (UniProt J3KN59)	inactive: 0.025	inactive: 0.01	inactive: 0.002	inactive: 0.11	inactive: 0.003	inactive: 0.06	inactive: -0.07	inactive: 0.058	inactive: 0.02	inactive: 0.01	inactive: -0.016	inactive: -0.087	inactive: 0.022	inactive: -0.003	inactive: -0.041	inactive: -0.057	inactive: 0.011	inactive: -0.15	inactive: -0.038	inactive: -0.207
